Test results: patent publication US4113946A, “Δ^2,3 -1,4-Morpholine-2-carboxylic acid derivatives as antibacterial agents” (Bristol-Myers Company, priority 1977, dated 1978)

Assay: in vivo
Conditions: mouse, po, 100 mg/kg

CC1=C(C(=O)O)N2C(=O)[C@@H](NC(=O)[C@H](N)c3ccccc3)[C@H]2SC1 [Cephalexin, cephalexin, reference compound]
concentration at 0.5 h: 42400 ng/mL | concentration at 1 h: 23700 ng/mL | concentration at 2 h: 9800 ng/mL | concentration at 3.5 h: 4000 ng/mL
